Measurements: the supplement of paper PMC12872613
Where a name gives a salt, the structure may show the parent alone. This is one part of the list. No stated cut-off is given here; in the data, active = 0.7 or more and inactive = the rest. Many values rest on one well or one pass, so single values are uncertain.

Tested on: MiaPaCa-2 CLSA-25
Assay: cell death relative to DMSO vehicle (fraction); higher = more cytotoxic
Settings: 5 µM; treatment time 48 h; medium cystine 25 µM

SMILES | cell death
N#CN=C(NCCCCCCOc1ccc(Cl)cc1)Nc1ccncc1 | inactive: 0.685
Cc1ccccc1C(C(=O)NC1CCCCC1)N(C(=O)Cn1ccnc1C)c1cccc(F)c1 (configuration not stated) | inactive: 0.0851
C=C(C)[C@@H]1CC[C@]2(C(=O)O)CC[C@]3(C)[C@H](CC[C@@H]4[C@@]5(C)CC[C@H](O)C(C)(C)[C@@H]5CC[C@]43C)[C@@H]12 [Betulinic acid] | inactive: 0.00241
CC(C)C[C@@H]1NC(=O)[C@@H](C(C)C)NC(=O)[C@@H]2CCCN2C(=O)[C@@H](CC(=O)O)NC(=O)[C@@H](Cc2c[nH]c3ccccc23)NC1=O | inactive: 0.172
O=c1c(-c2ccc(O)cc2)coc2cc(O)ccc12 [Daidzein] | inactive: 0.042
CC#C[C@]1(O)CC[C@H]2[C@@H]3CCC4=CC(=O)CCC4=C3[C@@H](c3ccc(N(C)C)cc3)C[C@@]21C [Mifepristone] | inactive: 0.173
CC(=O)OCC(=O)[C@@]1(O)CC[C@H]2[C@@H]3CCC4=CC(=O)CC[C@]4(C)[C@@]3(F)[C@@H](O)C[C@@]21C [Fludrocortisone acetate] | inactive: 0.0492
Nc1nc(=O)c2c([nH]1)NCC(CNc1ccc(C(=O)N[C@@H](CCC(=O)O)C(=O)O)cc1)N2C=O (some centres not stated) [Calcium folinate] | inactive: 0.679
CCCCCCCCC(=O)N[C@H](CN1CCCC1)[C@H](O)c1ccc2c(c1)OCCO2 | inactive: 0.15
O=C([O-])c1ccccc1O.[Na+] [Sodium salicylate] | inactive: 0.0417
OC[C@H](O)C(O)[C@@H](O)CO [L-(-)-Arabitol] | inactive: 0.277
Cc1[nH]c(=O)c(C#N)cc1-c1ccncc1 [Milrinone] | inactive: 0.531
CCOc1cc([C@@H](CS(C)(=O)=O)N2C(=O)c3cccc(NC(C)=O)c3C2=O)ccc1OC [Apremilast] | inactive: 0.217
C[Se]CC[C@H](N)C(=O)O [L-(+)-Selenomethionine] | inactive: 0.267
O=S(=O)(O)Oc1ccc(C(c2ccc(OS(=O)(=O)O)cc2)c2ccccn2)cc1 [Sodium Picosulfate] | inactive: 0.0091
COc1ccc(C(C)=O)c(O)c1 [Paeonol] | inactive: 0.0407

3 neighbouring compounds from above, for reference:
SMILES | cell death
C[Se]CC[C@H](N)C(=O)O [L-(+)-Selenomethionine] | inactive: 0.267
O=S(=O)(O)Oc1ccc(C(c2ccc(OS(=O)(=O)O)cc2)c2ccccn2)cc1 [Sodium Picosulfate] | inactive: 0.0091
COc1ccc(C(C)=O)c(O)c1 [Paeonol] | inactive: 0.0407

The list goes on.

SMILES | cell death
CCNC1(C(N)=O)CCN(c2ncnc3c2nc(-c2ccccc2Cl)n3-c2ccc(Cl)cc2)CC1 [Otenabant hydrochloride] | inactive: 0.314
CC1(C)CCC(C)(C)c2cc(NC(=O)c3ccc(C(=O)O)cc3)ccc21 [Tamibarotene] | inactive: 0.158
CC(C)C[C@H](NC(=O)[C@@H](O)[C@H](N)Cc1ccccc1)C(=O)O [Bestatin hydrochloride] | active: 0.802
CC(=O)c1ccc(NC2=C(Cl)C(=O)c3ccccc3C2=O)cc1 | active: 0.762
O=C(Nc1ccccc1)c1cc([N+](=O)[O-])ccc1Cl | inactive: -0.00482
Cn1c(=O)c2c(ncn2CC(=O)O)n(C)c1=O [Theophylline-7-acetic acid] | inactive: 0.116
CC(C)(Oc1ccc(C(=O)c2ccc(Cl)cc2)cc1)C(=O)O [Choline Fenofibrate] | active: 0.858
CC(C)c1ccc2c(c1)c(SC(C)(C)C)c(CC(C)(C)C(=O)O)n2Cc1ccc(Cl)cc1 | inactive: 0.279
O=C(NC[C@H]1CN(c2ccc(N3CCOCC3=O)cc2)C(=O)O1)c1ccc(Cl)s1 [Rivaroxaban] | inactive: 0.12
CCN(CC)C(=O)/C(C#N)=C/c1cc(O)c(O)c([N+](=O)[O-])c1 [Entacapone] | inactive: 0.361
CC(C)(NS(=O)(=O)c1ccc2c(Cl)cnc(N=C(N)N)c2c1)C(=O)O | inactive: 0.495
O=C(O)/C=C/c1ccc(Cn2ccnc2)cc1 [Ozagrel hydrochloride] | inactive: 0.227
CCN[C@H]1CN(CCCOC)S(=O)(=O)c2sc(S(N)(=O)=O)cc21 [Brinzolamide] | inactive: 0.0634
C#CCN(C)Cc1ccccc1 [Pargyline] | inactive: 0.105
CC(=O)OCC(=O)[C@@]1(O)CC[C@H]2[C@@H]3CCC4=CC(=O)CC[C@]4(C)[C@H]3[C@@H](O)C[C@@]21C [Hydrocortisone acetate] | inactive: -0.00642
C[C@]12C=CC(=O)C=C1CC[C@H]1[C@@H]3C[C@@H](O)[C@](O)(C(=O)CO)[C@@]3(C)C[C@H](O)[C@@]12F [Triamcinolone] | inactive: 0.159
